Source: paper PMC6923878
Results are given in words; binding and its absence hold for the method and conditions named. Binding seen in cells or lysates may run through a third protein. Binding calls can cover weak binding; strength is not graded here.

Chains of the proteins cited; added tags and fusions are not shown. Lines headed by an entry give the natural chain unless they say otherwise; changes in a name come on top.
UniProt Q13263: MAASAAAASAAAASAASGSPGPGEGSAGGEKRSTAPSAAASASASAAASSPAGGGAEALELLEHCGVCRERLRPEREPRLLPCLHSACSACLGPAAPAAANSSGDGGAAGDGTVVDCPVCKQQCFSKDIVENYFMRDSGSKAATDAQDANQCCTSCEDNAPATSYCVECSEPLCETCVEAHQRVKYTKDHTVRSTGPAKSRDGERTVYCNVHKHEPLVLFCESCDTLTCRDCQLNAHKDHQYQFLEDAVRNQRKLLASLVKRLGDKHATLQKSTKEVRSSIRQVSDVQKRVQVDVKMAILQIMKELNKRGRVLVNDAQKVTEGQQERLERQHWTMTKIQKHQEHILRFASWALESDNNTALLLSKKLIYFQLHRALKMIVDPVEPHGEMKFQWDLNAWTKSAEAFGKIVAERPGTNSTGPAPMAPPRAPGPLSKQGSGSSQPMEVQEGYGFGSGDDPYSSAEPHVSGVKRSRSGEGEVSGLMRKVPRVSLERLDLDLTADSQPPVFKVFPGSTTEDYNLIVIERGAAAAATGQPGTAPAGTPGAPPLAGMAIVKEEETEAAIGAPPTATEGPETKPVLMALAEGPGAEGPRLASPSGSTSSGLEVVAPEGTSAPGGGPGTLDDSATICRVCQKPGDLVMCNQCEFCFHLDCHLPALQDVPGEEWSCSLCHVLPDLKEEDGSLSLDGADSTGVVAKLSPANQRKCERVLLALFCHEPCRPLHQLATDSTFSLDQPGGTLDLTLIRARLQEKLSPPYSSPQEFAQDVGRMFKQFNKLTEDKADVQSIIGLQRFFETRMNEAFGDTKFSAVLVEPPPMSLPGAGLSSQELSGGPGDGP
UniProt P21506: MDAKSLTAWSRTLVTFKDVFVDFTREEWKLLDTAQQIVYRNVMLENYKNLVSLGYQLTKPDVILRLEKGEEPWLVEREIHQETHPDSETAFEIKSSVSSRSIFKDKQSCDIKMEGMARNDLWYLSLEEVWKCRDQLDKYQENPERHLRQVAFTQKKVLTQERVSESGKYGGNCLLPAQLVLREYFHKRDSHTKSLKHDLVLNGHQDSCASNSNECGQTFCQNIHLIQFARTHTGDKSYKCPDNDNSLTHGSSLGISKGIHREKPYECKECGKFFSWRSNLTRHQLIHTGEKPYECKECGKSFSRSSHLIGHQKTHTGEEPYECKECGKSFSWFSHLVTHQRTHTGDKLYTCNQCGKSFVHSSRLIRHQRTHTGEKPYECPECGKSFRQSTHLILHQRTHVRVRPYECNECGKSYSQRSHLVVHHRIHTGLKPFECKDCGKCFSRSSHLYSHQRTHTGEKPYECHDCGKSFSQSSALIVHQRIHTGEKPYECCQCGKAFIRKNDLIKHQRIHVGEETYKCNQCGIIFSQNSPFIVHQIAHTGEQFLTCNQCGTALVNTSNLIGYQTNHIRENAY

Target: TRIM28 (endogenous) (human (endogenous in HeLa)) (UniProt Q13263)
Test: co-IP; HeLa cells transiently expressing GST fusions; endogenous TRIM28 as bait, precipitated with mAb 1Tb1A9 on protein G Mag-Sepharose; TST buffer, overnight at 4 °C; Western blot with anti-TRIM28 and anti-GST

binding: binds
Substance: GST fusion of the ZNF10 KRAB-AB domain (from UniProt P21506) (domain or fragment)
